Test results as given in ChEMBL document CHEMBL1138663, “Synthesis and aromatase inhibitory activity of novel pyridine-containing isoflavones” (J Med Chem, 2004).

Molecular target: T1, Aromatase (Homo sapiens, UniProt P11511)
T1 sequence (P11511 whole entry): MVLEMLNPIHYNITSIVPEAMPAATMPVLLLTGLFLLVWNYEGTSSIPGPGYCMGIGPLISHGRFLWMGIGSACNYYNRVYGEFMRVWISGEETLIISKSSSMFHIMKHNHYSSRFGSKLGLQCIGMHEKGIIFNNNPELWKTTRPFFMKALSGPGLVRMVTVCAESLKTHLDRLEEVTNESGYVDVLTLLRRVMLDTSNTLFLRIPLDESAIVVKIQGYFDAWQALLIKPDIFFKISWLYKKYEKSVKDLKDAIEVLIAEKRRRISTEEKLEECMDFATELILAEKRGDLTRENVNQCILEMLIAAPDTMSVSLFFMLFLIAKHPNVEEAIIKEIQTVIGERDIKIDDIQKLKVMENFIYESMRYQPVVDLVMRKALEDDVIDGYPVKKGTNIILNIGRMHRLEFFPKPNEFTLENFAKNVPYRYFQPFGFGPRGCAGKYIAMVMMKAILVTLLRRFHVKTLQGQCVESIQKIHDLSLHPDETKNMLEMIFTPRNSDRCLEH

Row | SMILES | IC50
1 | C=CCSc1oc2cc(OCc3ccccc3)ccc2c(=O)c1-c1ccc(OC)cc1 | > 100 µM
2 | C=CCSc1oc2cc(OC)ccc2c(=O)c1-c1ccccc1 | > 100 µM
